This is an account of results in PMC6554350.

Amino acid sequences for entries named in this document (tags omitted).
UniProt P10361: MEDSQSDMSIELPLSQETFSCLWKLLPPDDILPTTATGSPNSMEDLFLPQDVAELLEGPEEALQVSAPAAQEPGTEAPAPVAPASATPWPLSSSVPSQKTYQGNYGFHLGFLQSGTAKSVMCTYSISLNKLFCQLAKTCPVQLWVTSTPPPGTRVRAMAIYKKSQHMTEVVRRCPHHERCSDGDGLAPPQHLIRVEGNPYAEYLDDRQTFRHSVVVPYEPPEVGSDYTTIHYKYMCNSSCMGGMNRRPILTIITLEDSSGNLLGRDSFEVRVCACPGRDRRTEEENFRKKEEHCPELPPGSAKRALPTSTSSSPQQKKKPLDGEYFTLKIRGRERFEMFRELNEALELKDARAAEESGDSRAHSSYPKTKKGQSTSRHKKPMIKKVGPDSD
UniProt P47196: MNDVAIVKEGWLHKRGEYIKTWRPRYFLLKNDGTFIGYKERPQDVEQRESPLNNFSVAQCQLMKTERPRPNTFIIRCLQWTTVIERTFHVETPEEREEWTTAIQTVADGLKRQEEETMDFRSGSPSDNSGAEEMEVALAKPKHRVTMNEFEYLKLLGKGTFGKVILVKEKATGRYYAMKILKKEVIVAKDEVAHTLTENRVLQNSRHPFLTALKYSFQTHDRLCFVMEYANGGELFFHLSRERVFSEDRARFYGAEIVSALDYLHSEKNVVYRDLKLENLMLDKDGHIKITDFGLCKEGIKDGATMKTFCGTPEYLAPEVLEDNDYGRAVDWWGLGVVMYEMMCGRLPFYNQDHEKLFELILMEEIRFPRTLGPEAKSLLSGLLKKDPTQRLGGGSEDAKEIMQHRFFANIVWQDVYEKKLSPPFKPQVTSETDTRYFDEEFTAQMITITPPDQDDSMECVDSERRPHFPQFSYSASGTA

This assay has as its target p53 (rat (endogenous in primary rat hepatocytes)) (UniProt P10361). Nature of the assay: co-IP; cytoplasmic protein extract of primary rat hepatocytes; IP with anti-p53 (non-specific IgG as control), blot for p53 and AKT1; cells transfected with AV-CTR or AV-IGF-1 and treated or not with H2O2 (200 nM) for 24 h.

These are yes or no findings as the source states them, for the method shown. In cells and extracts the contact can be indirect. Some results given as binding are weak or reduced against the parent protein; the word gives no strength.

With AKT1 (from UniProt P47196 1-480), the binding result is reported as “binds”.
